Laboratory results as given in the supplement of paper PMC10849652.
The list shows a part of the results.

Protein sequences, listed by entry. Tags and fused reporters are not part of them. Lines headed by an entry give the natural chain unless they say otherwise; changes in a name come on top.
UniProt Q9ULR0: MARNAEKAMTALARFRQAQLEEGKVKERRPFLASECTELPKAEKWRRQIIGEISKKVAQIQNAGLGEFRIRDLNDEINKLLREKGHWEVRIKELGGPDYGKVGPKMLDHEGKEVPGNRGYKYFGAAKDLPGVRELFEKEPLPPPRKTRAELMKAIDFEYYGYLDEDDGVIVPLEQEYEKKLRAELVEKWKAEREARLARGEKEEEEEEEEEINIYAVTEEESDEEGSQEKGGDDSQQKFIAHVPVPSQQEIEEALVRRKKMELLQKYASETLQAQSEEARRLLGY
UniProt P23458: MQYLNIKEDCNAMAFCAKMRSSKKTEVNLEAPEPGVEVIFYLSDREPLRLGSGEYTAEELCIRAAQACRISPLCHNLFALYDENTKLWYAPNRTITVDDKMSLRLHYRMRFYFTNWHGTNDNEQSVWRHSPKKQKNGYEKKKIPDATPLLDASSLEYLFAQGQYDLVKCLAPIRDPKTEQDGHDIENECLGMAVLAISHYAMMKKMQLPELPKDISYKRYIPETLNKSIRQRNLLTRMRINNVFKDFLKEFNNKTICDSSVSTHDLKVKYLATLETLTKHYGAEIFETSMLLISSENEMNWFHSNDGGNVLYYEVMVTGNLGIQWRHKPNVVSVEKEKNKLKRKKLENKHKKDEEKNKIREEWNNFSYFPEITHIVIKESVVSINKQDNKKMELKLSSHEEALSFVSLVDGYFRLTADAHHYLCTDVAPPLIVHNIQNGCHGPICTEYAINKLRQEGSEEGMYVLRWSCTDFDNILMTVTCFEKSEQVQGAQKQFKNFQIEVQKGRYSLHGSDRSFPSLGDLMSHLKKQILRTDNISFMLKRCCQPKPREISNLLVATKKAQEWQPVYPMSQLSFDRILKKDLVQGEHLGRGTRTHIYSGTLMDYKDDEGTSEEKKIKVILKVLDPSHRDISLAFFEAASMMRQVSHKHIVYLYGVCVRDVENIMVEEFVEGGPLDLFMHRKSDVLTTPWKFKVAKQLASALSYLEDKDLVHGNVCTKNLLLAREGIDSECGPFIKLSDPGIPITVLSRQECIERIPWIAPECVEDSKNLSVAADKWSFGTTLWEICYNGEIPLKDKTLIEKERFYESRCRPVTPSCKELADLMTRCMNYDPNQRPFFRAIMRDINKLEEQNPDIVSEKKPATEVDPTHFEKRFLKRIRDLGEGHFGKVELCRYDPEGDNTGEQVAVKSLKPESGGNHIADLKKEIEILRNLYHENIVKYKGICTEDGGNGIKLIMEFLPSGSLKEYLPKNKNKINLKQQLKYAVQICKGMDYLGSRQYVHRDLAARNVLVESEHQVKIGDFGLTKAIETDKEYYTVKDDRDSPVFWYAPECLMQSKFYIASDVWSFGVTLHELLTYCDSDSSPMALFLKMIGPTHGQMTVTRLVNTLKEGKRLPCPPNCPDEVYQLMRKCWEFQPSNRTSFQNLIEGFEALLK
UniProt Q7Z5Y7: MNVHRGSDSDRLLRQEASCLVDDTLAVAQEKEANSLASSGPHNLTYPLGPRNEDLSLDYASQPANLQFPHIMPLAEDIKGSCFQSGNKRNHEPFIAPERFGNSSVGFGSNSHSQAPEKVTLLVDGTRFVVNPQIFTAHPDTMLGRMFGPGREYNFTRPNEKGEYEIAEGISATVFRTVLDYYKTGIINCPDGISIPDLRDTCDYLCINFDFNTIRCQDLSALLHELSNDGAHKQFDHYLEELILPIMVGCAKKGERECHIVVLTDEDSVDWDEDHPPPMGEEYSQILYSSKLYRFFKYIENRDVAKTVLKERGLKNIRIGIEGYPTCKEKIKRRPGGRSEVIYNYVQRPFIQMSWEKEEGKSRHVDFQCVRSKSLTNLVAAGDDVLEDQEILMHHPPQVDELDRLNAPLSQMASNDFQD
UniProt Q9H910: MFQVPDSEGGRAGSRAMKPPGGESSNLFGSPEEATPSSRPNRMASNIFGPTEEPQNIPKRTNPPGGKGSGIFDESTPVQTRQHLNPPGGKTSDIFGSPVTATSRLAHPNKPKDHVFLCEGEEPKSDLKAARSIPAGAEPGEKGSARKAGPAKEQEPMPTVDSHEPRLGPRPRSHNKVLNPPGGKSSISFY
UniProt Q8NC54: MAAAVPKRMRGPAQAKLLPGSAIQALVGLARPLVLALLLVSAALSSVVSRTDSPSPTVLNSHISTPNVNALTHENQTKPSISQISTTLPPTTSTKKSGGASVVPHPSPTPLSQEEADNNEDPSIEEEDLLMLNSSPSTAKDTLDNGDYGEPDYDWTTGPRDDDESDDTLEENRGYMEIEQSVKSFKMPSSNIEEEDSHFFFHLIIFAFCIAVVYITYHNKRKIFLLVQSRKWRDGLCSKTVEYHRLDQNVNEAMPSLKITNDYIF
UniProt Q9NZM3: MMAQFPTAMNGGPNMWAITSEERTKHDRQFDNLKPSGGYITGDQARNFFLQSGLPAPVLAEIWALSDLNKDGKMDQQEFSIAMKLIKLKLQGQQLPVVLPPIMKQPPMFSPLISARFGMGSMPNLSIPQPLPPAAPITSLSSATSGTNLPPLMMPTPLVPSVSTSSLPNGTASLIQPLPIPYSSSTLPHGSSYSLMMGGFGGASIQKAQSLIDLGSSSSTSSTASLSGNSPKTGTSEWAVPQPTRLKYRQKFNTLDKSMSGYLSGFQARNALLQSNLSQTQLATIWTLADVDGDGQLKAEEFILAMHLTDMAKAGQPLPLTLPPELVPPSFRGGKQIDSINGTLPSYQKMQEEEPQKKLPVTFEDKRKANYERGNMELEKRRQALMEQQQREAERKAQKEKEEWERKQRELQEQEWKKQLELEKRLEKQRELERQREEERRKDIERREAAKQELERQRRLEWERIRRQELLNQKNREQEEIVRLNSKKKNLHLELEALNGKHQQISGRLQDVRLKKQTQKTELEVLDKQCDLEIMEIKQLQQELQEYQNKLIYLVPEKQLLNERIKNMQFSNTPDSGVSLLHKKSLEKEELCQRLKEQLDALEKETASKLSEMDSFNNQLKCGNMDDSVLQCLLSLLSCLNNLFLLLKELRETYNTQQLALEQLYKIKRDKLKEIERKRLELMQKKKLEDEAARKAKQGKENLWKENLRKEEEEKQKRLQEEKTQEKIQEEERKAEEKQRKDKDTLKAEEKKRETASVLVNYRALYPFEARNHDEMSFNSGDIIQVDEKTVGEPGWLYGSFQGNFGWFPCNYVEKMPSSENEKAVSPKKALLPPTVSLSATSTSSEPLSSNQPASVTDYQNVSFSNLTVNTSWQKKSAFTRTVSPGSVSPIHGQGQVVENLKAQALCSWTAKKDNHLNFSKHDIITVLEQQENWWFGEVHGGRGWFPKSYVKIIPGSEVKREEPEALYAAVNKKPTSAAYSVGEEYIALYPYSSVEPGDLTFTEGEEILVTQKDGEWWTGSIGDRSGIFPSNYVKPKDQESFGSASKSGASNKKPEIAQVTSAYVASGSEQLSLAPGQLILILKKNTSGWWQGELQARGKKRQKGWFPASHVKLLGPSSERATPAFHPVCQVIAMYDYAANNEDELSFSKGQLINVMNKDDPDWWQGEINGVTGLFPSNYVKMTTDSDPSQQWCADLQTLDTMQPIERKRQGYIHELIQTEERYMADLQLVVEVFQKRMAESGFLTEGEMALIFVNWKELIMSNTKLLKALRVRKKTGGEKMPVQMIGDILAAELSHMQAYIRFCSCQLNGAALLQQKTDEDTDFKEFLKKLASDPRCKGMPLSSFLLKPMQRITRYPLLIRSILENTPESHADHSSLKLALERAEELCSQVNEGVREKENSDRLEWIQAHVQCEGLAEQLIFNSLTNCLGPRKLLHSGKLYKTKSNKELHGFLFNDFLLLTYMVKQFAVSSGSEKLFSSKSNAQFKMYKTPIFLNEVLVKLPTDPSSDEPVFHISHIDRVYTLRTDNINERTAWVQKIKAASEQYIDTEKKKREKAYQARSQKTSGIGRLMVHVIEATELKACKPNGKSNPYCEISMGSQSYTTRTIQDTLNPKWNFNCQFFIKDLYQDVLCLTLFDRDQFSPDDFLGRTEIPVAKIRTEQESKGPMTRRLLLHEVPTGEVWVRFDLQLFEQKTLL
UniProt Q8IU81: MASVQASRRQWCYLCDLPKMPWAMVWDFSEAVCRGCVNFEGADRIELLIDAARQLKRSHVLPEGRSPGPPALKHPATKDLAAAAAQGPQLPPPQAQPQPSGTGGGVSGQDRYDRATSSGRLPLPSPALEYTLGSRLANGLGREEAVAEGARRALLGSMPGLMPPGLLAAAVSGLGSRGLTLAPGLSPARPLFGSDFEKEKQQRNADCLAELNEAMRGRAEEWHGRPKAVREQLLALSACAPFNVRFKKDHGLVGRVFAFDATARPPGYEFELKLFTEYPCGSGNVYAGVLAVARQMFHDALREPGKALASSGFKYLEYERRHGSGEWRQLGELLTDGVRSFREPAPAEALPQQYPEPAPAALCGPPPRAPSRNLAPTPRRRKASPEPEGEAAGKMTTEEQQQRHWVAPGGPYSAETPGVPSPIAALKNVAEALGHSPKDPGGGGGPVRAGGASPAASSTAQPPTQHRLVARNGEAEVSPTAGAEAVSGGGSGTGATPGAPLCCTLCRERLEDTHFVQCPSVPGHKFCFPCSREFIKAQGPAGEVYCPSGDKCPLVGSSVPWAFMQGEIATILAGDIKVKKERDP
UniProt Q9BUE6: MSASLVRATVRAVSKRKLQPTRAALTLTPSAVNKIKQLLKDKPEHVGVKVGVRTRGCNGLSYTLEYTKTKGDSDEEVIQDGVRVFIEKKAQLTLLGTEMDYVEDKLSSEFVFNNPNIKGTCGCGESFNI
UniProt Q7LBC6: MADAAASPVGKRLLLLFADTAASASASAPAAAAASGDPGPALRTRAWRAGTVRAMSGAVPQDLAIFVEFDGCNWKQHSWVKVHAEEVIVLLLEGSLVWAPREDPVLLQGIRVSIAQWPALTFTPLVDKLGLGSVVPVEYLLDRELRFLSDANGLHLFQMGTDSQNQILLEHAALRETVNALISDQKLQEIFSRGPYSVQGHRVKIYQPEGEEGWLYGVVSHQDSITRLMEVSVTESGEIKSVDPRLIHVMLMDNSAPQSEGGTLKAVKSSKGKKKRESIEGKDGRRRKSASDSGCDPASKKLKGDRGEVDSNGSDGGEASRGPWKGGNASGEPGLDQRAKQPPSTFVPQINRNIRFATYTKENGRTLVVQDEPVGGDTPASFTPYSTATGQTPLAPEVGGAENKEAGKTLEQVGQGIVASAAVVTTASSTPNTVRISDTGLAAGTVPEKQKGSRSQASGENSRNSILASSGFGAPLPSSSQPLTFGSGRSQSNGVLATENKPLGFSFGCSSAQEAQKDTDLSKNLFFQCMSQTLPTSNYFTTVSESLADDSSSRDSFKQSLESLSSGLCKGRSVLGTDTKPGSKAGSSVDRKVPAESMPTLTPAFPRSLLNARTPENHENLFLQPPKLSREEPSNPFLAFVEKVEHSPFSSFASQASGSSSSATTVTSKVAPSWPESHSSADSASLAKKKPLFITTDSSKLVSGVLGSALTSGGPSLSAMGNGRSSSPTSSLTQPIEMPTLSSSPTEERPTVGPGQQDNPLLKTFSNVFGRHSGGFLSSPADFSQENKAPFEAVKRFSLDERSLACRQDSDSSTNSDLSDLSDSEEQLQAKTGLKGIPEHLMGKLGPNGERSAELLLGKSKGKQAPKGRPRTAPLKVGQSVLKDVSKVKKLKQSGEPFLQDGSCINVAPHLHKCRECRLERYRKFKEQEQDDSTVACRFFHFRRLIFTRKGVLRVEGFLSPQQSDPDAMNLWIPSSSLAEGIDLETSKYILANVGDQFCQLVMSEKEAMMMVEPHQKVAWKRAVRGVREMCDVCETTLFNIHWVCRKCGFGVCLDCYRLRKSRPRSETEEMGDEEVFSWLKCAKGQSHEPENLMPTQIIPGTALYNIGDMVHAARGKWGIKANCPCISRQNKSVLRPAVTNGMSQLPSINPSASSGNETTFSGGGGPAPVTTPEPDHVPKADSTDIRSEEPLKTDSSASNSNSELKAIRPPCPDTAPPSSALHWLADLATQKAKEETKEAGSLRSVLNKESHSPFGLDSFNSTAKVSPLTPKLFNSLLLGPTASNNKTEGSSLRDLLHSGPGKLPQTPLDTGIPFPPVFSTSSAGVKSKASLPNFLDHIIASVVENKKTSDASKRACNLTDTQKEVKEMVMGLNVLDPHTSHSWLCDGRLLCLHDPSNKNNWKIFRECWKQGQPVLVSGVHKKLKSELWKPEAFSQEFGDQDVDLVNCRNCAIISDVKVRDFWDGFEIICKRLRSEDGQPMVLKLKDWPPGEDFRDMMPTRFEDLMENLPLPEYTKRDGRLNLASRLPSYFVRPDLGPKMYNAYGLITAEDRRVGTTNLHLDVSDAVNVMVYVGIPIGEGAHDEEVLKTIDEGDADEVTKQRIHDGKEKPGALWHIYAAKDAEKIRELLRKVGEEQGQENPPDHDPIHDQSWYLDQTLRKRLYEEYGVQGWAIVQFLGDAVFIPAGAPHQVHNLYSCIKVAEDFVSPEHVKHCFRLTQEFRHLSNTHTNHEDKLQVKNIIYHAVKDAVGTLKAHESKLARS

Columns and labels:
Test in all cases: log2 fold change, soluble protein after heating vs DMSO (PISA); higher = thermal stabilisation; K562 lysate, 10 uM; active = over 0.2 and 3.5 SD of the protein, either way, in both replicates (recomputed)
[1] = compound: C1=CC=C(C=C1)[C@H](COC2=CC3=C(C=C2)NC(=O)N3)NC(=O)C4=CC=CN(C4=O)CC5=CC(=C(C=C5)F)F
Method in brief: (§1)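 Pellets of K562 cells were dounce-homogenised in PBS pH 7.4 with 1 mM MgCl2, and the crude extract was held at 1 mg/mL protein for a 30 min treatment with 10 μM compound. Aliquots were heated for 3 min over 48°C-58°C and pooled before NP-40 was added to 0.5% at 4°C. The supernatant from 21,000xg for 90 min was quantified by TMTpro 16plex LC-MS/MS with channel sums equalised. Values are reported from duplicates as log-two fold change in thermal stability relative to solvent controls.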

[2] = compound: CC1=C(SC2=C1C(=N[C@H](C3=NN=C(N32)C)CC(=O)N)C4=CC=C(C=C4)Cl)C
Method in brief: as §1

[3] = compound: CC1=C2C(=CC=C1)N=C(N(C2=O)C3=CC=CC=C3C)CN4C=NC5=C(N=CN=C54)N
Method in brief: as §1

[4] = compound: Cc1sc2c(c1C)C(c1ccc(Cl)cc1)=N[C@@H](CC(=O)OC(C)(C)C)c1nnc(C)n1-2
Method in brief: as §1

[5] = compound: c1ccc([C@@H]2C[C@H]2NC2CCNCC2)cc1
Method in brief: as §1

Measured: log2 fold change

JUND (UniProt P17535)
inactive: [1] -0.008 | [2] 0.043 | [3] -0.028 | [4] 0.03 | [5] -0.12

JPT1 (UniProt Q9UK76)
inactive: [1] 0.057 | [2] -0.065 | [3] -0.026 | [4] -0.057 | [5] -0.018

KCNAB2 (UniProt Q13303)
inactive: [1] 0.024 | [2] -0.001 | [3] -0.002 | [4] 0.092 | [5] -0.044

INTS5 (UniProt Q6P9B9)
inactive: [1] -0.086 | [2] -0.034 | [3] -0.019 | [4] 0.015 | [5] 0.127

ISOC1 (UniProt Q96CN7)
inactive: [1] -0.025 | [2] 0.024 | [3] -0.042 | [4] -0.009 | [5] 0.006

IQGAP3 (UniProt Q86VI3)
inactive: [1] -0.011 | [2] 0.038 | [3] -0.208 | [4] -0.03 | [5] 0.099

ITGAV (UniProt P06756)
inactive: [1] 0.041 | [2] -0.009 | [3] 0.013 | [4] -0.069 | [5] -0.009

KBTBD8 (UniProt Q8NFY9)
inactive: [1] -0.03 | [2] 0.03 | [3] 0.074 | [4] -0.045 | [5] -0.021

ITM2B (UniProt Q9Y287)
active: [3] 0.43
inactive: [1] -0.019 | [2] -0.032 | [4] 0.058 | [5] -0.027

ISY1 isoform 1 (UniProt Q9ULR0)
inactive: [1] 0.016 | [2] 0 | [3] 0.001 | [4] -0.12 | [5] -0.004

KAT14 (UniProt Q9H8E8)
inactive: [1] 0.109 | [2] 0.037 | [3] 0.107

IPO4 isoform 2 (UniProt Q8TEX9)
inactive: [1] 0.018 | [2] 0.017 | [3] 0.008 | [4] -0.002 | [5] -0.029

IRF2 (UniProt P14316)
inactive: [1] 0.169 | [2] -0.029 | [3] 0.007 | [4] -0.034 | [5] -0.037

IQCD (UniProt Q96DY2)
inactive: [1] -0.113 | [2] 0

JAK1 (UniProt P23458)
inactive: [1] 0.057 | [2] -0.15 | [3] 0.034

ITGB1BP1 (UniProt O14713)
inactive: [1] -0.035 | [2] -0.003 | [3] -0.066 | [4] -0.155 | [5] -0.063

KDF1 (UniProt Q8NAX2)
inactive: [1] -0.036 | [2] 0.126 | [3] -0.246

KCTD21 (UniProt Q4G0X4)
inactive: [1] -0.15 | [2] -0.086 | [3] 0.137

5 records drawn at random from the list so far:
KDF1 (UniProt Q8NAX2)
inactive: [1] -0.036 | [2] 0.126 | [3] -0.246

KCTD21 (UniProt Q4G0X4)
inactive: [1] -0.15 | [2] -0.086 | [3] 0.137

ITGB1BP1 (UniProt O14713)
inactive: [1] -0.035 | [2] -0.003 | [3] -0.066 | [4] -0.155 | [5] -0.063

JAK1 (UniProt P23458)
inactive: [1] 0.057 | [2] -0.15 | [3] 0.034

IQCD (UniProt Q96DY2)
inactive: [1] -0.113 | [2] 0

Later entries.

IQGAP1 (UniProt P46940)
inactive: [1] -0.004 | [2] 0.008 | [3] -0.028 | [4] -0.015 | [5] 0.035

IPO7 (UniProt O95373)
inactive: [1] -0.007 | [2] 0.032 | [3] 0.009 | [4] -0.007 | [5] -0.062

KCTD20 (UniProt Q7Z5Y7)
inactive: [1] -0.031 | [2] -0.011 | [3] 0.097 | [4] -0.009 | [5] 0.078

ITPA (UniProt Q9BY32)
inactive: [1] -0.016 | [2] 0.011 | [3] -0.031 | [4] -0.027 | [5] -0.135

IPO5 isoform 3 (UniProt O00410)
inactive: [1] 0.007 | [2] -0.008 | [3] 0.004 | [4] 0.007 | [5] 0.032

IPO11 isoform 2 (UniProt Q9UI26)
inactive: [1] 0.033 | [2] -0.003 | [3] 0.014 | [4] -0.014 | [5] 0.017

JTB (UniProt O76095)
inactive: [1] 0.084 | [2] 0.134 | [3] -0.034 | [4] 0.016

IPO8 (UniProt O15397)
inactive: [1] -0.004 | [2] 0.014 | [3] 0.03 | [4] -0.005 | [5] 0.053

KARS1 (UniProt Q15046)
inactive: [1] 0.005 | [2] 0.019 | [3] 0.002 | [4] 0.045 | [5] 0.045

KCTD2 (UniProt Q14681)
inactive: [1] 0.065 | [2] -0.072 | [3] -0.032 | [4] 0.099 | [5] 0.278

IPO13 (UniProt O94829)
inactive: [1] -0.018 | [2] -0.002 | [3] 0.03 | [4] 0.022 | [5] -0.021

ITCH (UniProt Q96J02)
inactive: [1] -0.073 | [2] -0.018 | [3] 0.035 | [4] -0.071 | [5] 0.002

IRF2BPL (UniProt Q9H1B7)
inactive: [1] 0.055 | [2] -0.057 | [3] 0 | [4] 0.047 | [5] -0.134

KDM3A (UniProt Q9Y4C1)
inactive: [1] 0.011 | [2] -0.061 | [3] -0.018 | [4] -0.006 | [5] 0.123

KDELR2 (UniProt P33947)
inactive: [1] -0.038 | [2] -0.069 | [3] 0.317 | [4] -0.109 | [5] -0.19

JPT2 isoform 3 (UniProt Q9H910)
inactive: [1] 0.014 | [2] 0.002 | [3] -0.025 | [4] 0.009 | [5] -0.003

IVNS1ABP (UniProt Q9Y6Y0)
inactive: [1] 0.032 | [2] 0.069 | [3] 0.026 | [4] 0.072 | [5] 0.002

KDM2A (UniProt Q9Y2K7)
inactive: [1] -0.044 | [2] 0.023 | [3] 0.018 | [4] 0.033 | [5] 0.088

KAT6B (UniProt Q8WYB5)
inactive: [1] 0.087 | [2] -0.21 | [3] 0.078 | [4] -0.026 | [5] -0.179

IQSEC1 (UniProt Q6DN90)
inactive: [1] -0.018 | [2] 0.057 | [3] -0.011 | [4] 0.068 | [5] 0.032

ITFG1 (UniProt Q8TB96)
inactive: [1] -0.088 | [2] 0.018 | [3] 0.034 | [4] 0.001 | [5] 0.017

ITPKC (UniProt Q96DU7)
inactive: [1] -0.085 | [2] -0.027 | [3] -0.013 | [4] -0.018 | [5] -0.139

KCT2 (UniProt Q8NC54)
inactive: [1] 0.069 | [2] -0.008 | [3] -0.05 | [4] -0.033 | [5] -0.173

ITSN2 (UniProt Q9NZM3)
inactive: [1] -0.003 | [2] 0.02 | [3] -0.021 | [4] -0.042 | [5] 0.04

ITSN1 isoform 8 (UniProt Q15811)
inactive: [1] 0.08 | [2] -0.067 | [3] -0.009 | [4] 0.048 | [5] 0.001

INTS14 (UniProt Q96SY0)
inactive: [1] 0.067 | [2] 0.034 | [3] -0.038 | [4] 0.007 | [5] 0.009

KDELR1 (UniProt P24390)
inactive: [1] -0.155 | [2] -0.179 | [3] 0.02 | [4] 0.007 | [5] -0.131

KAZN (UniProt Q674X7)
inactive: [1] 0.085 | [2] 0.019 | [3] 0.054 | [4] -0.055 | [5] 0.012

IRF2BP1 (UniProt Q8IU81)
inactive: [1] -0.048 | [2] -0.013 | [3] -0.043 | [4] 0.017 | [5] -0.045

IRAK1 (UniProt P51617)
inactive: [1] -0.146 | [2] -0.028 | [3] -0.001 | [4] 0.004 | [5] 0.026

ISCA1 isoform 2 (UniProt Q9BUE6)
inactive: [1] 0.005 | [2] -0.03 | [3] 0.016 | [4] -0.021 | [5] 0.099

KDM1A (UniProt O60341)
inactive: [1] 0.007 | [2] -0.004 | [3] 0.018 | [4] 0.009
active: [5] 0.817

INTS7 (UniProt Q9NVH2)
inactive: [1] -0.06 | [2] 0.007 | [3] 0.016 | [4] 0.009 | [5] -0.001

KDM3B (UniProt Q7LBC6)
inactive: [1] -0.023 | [2] 0.017 | [3] 0.027 | [4] 0.029 | [5] 0

INTS2 (UniProt Q9H0H0)
inactive: [1] -0.024 | [2] 0.049 | [3] -0.042 | [4] 0.041 | [5] 0.065

IRGQ (UniProt Q8WZA9)
inactive: [1] 0.004 | [2] 0.002 | [3] 0 | [4] -0.01 | [5] -0.021

IQCB1 (UniProt Q15051)
inactive: [1] -0.021 | [2] -0.002 | [3] -0.112 | [4] -0.057 | [5] 0.054
